Results taken from PubChem BioAssay AID1347076 (National Center for Advancing Translational Sciences (NCATS), 2019).
The campaign covered roughly 400,000 compounds. About 13,000 (3.2%) were called active. Inconclusive means that the source gave no clear call. Such entries were picked first, then a sample of the others. The call rests on the fitted dose curve; in most records, active means well fitted cell-killing curve with a large enough effect; inconclusive means small, poorly fitted or top-dose-only effect, or effect the other way; inactive means flat fitted curve, though single readings scatter. Where the call is inconclusive, the potency comes from a doubtful curve fit.

experiment: qHTS assay for MDR1-selective chemotherapeutics: Primary screen using the drug-selected MDR subline cells KB-V1; details: KB-V1 MDR cells viability, CellTiter-Glo, 72 h; activity change, negative = cytotoxicity: at 46.1 µM (top of the series); further: nearly all actives have a fitted effect of over 60% in size
Summary of the method: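 KB-V1 MDR subline cells in DMEM (phenol-red free, 10% FBS) exposed to compounds in qHTS concentration series for 72 h at 37 degrees C. Viability read by CellTiter-Glo luminescence; concentration-effect curves fitted after normalization and correction.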
On the % scale 0 is the no-effect control and ±100 the full control effect; potency means the concentration at half of the fitted maximal effect.

| Compound | Potency | activity change, negative = cytotoxicity |
| --- | --- | --- |
| CN1C(=O)[C@H]2[C@@H](C3CC3)N3C(=O)CN(Cc4ccccn4)C(=O)[C@@]3(Cc3ccccc3)[C@H]2C1=O | inconclusive: 8.2 µM [rising, partial curve] |  |
| Cc1ccc2c(CC(=O)NCCc3ccc(S(N)(=O)=O)cc3)coc2c1 | inactive |  |
| O=C(c1ccccc1)N1N=C(C(F)(F)F)CC1(O)c1ccccc1O (centres undefined) | inconclusive: 18.4 µM [cytotoxic, single point] |  |
| O=C(NCCOc1ccccc1)c1cc(C(=O)NCCOc2ccccc2)cc([N+](=O)[O-])c1 | active: 3.66 µM |  |
| Cc1ccc(-n2c(O)c(C=Nc3cc(C)on3)c3ccccc3c2=O)c(C)c1 | inconclusive: 18.4 µM [cytotoxic, partial curve, poor fit] |  |
| O=C(CN1C(=O)NC2(CCc3ccccc32)C1=O)c1ccc(F)cc1 (centres undefined) | inactive |  |
| CC1(C)OC(=O)C2(Cc3cc(C(F)(F)F)ccc3N3CCCCC32)C(=O)O1 (centres undefined) | inconclusive: 29.1 µM [rising, single point] |  |
| CC(C)(C)NC(=O)C(c1ccccc1)N(C(=O)C1CSC(=O)C1)c1ccccc1 (centres undefined) | inconclusive: 16.4 µM [cytotoxic, single point] |  |
| O=C(CN(C(=O)c1csnn1)c1cccc(Cl)c1)NC1CCCCC1 | inconclusive: 20.6 µM [cytotoxic, single point] |  |
| CCN(C(=O)Cn1nnc2sc(-c3ccccc3)cc2c1=O)c1cccc(C)c1 | inactive |  |
| CC1CCN(C(=S)c2ccc([N+](=O)[O-])cc2)CC1 | inconclusive: 29.1 µM [cytotoxic, partial curve, poor fit] |  |
| CCn1c(CCNC(=O)c2ccc(OC)cc2)nnc1SCc1ccc(Cl)cc1Cl | inconclusive: 6.51 µM [cytotoxic, partial curve] |  |
| O=C(C1CCN(CCCc2ccccc2)CC1)N(CCc1ccccc1)Cc1ccccc1 | inconclusive: 20.6 µM [cytotoxic, partial curve, poor fit] |  |
| O=C(Nc1ccc(F)cc1F)c1cc2nc(-c3ccco3)cc(C(F)(F)Cl)n2n1 | inactive |  |
| CC1=NN(C(=O)Cn2ccc([N+](=O)[O-])n2)C(O)(C(F)(F)F)C1 (centres undefined) | inconclusive: 1.3 µM [rising, full curve] |  |
| COc1ccc(-c2nc3n(c(=O)c2C#N)CCS3)cc1 | inactive |  |
| CCc1ccccc1NC(=O)CCc1c(C)nn(-c2ccc(N3CCOCC3)nn2)c1C | inconclusive: 20.6 µM [cytotoxic, partial curve, poor fit] |  |
| COc1ccc(C)cc1NC(=O)CSCc1ccccc1C | inconclusive: 11.6 µM [cytotoxic, partial curve] |  |
| N#CCN1C(=O)C(=O)N(Cc2cccc(Cl)c2)C1=O | inconclusive: 23.1 µM [rising, single point] |  |
| COc1cc2c(C#CCCCO)c(-c3ccc(C#N)cc3)oc(=O)c2cc1OC | inconclusive: 23.1 µM [rising, single point] |  |
| COc1ccc(C2=Nn3c(nnc3-c3ccccc3F)SC2)cc1OC1CCCC1 | inconclusive: 29.1 µM [cytotoxic, single point] |  |
| N#Cc1ccc(-c2csc(NC(=O)/C=C/c3cccs3)n2)cc1 | inactive |  |
| N/C(=N/S(=O)(=O)c1ccccc1)c1cccc([N+](=O)[O-])c1 | inconclusive: 29.1 µM [cytotoxic, single point] |  |

Whole records, looked up by structure.
COc1ccc(-c2nc3n(c(=O)c2C#N)CCS3)cc1 in the list: Potency: inactive
O=C(c1ccccc1)N1N=C(C(F)(F)F)CC1(O)c1ccccc1O (centres undefined) in the list: Potency: inconclusive: 18.4 µM [cytotoxic, single point]
N#CCN1C(=O)C(=O)N(Cc2cccc(Cl)c2)C1=O in the list: Potency: inconclusive: 23.1 µM [rising, single point]

(listing goes on)

| Compound | Potency | activity change, negative = cytotoxicity |
| --- | --- | --- |
| COc1ccc([C@H]2CC(=O)C=C(c3cccc(C(F)(F)F)c3)C2)cc1 | inactive |  |
| O=C(CN1CCCc2ccccc21)NCCc1ccc(F)cc1 | inconclusive: 16.4 µM [cytotoxic, single point] |  |
| COC(=O)Nc1nc(C)c(C(=O)c2ccccc2)s1 | active: 7.31 µM |  |
| COC(=O)c1cc(C(=O)N2CCN(c3cccc(Cl)c3)CC2)cc([N+](=O)[O-])c1 | inconclusive: 0.517 µM [cytotoxic, full curve, poor fit] |  |
| CC(C)CC(NS(=O)(=O)c1cc(C(=O)O)ccc1Cl)C(=O)O (centres undefined) | inconclusive: 10.3 µM [rising, partial curve, poor fit] |  |
| CCCc1nc2c3ccccc3ccn2c1Cc1ccccc1C(F)(F)F | inactive |  |
| Cn1nnc2ccccc2c1=O | inconclusive: 29.1 µM [rising, single point] |  |
| CCC(NC(=O)CSc1nnnn1C1CC1)c1ccc(Br)cc1 (centres undefined) | inactive |  |
| Cc1cc(C)c(C(=O)/C=C/c2ccc3c(c2)OCO3)c(=O)[nH]1 | inconclusive: 29.1 µM [cytotoxic, single point] |  |
| Cn1c(SCc2ccccc2F)nnc1-c1ccccn1 | inactive |  |
| CCn1cc(/C=N/NS(=O)(=O)c2ccc(C)cc2)c(C)n1 | inconclusive: 23.1 µM [cytotoxic, single point] |  |
| CCN(CC)S(=O)(=O)c1ccc(NC2c3ccccc3C(=O)N2Cc2ccco2)cc1 (centres undefined) | inactive |  |
| COc1ccc(CNC(=S)Nc2ccc(F)c(Cl)c2)cc1OC | inconclusive: 20.6 µM [cytotoxic, single point] |  |
| O=C(N/N=C/c1ccc2cccnc2c1)c1ccco1 |  | inconclusive: -33.8% |
| COc1cc(CCC(=O)NCc2ccc3c(c2)CCN3C(=O)c2ccc(F)cc2)cc(OC)c1OC | inactive |  |
| O=C(N[C@@H](Cc1ccc(O)cc1)C(=O)O)c1ccncc1 | inactive |  |
| NS(=O)(=O)c1cccc(NC(=O)COC(=O)CCN2C(=O)c3ccccc3C2=O)c1 | inactive |  |
| Cc1ccc(-n2c([S-])c(C(=O)Nc3ccc(OC(F)F)cc3)[n+]3ccc(C(=O)NCCO)cc23)cc1C | inconclusive: 13 µM [rising, partial curve] |  |
| CC(C)(CNC(=O)c1ccc(Cl)c(S(=O)(=O)N2CCc3ccccc3C2)c1)N1CCOCC1 | inconclusive: 1.84 µM [cytotoxic, full curve] |  |
| Cn1nc(C(C)(C)C)cc1C(=O)N1CCCCC1c1cc(C(=O)NCc2ccccc2)no1 (centres undefined) | active: 9.2 µM |  |
| CCOC(=O)C1CCCN(CC(O)COc2cccc(C)c2)C1 (centres undefined) | inactive |  |
| COC(=O)c1ccccc1C(=O)N1CCC(CCC(=O)NC2CC2)CC1 | inconclusive: 29.1 µM [rising, single point] |  |
| Cn1nc(C(=O)Nc2ccc3c(c2)OCCO3)cc1C(=O)O | inconclusive: 8.2 µM [cytotoxic, partial curve] |  |

Ordered by SMILES length (rising): some entries from above

| Compound | Potency | activity change, negative = cytotoxicity |
| --- | --- | --- |
| COc1cc2c(C#CCCCO)c(-c3ccc(C#N)cc3)oc(=O)c2cc1OC | inconclusive: 23.1 µM [rising, single point] |  |
| CC(C)(C)NC(=O)C(c1ccccc1)N(C(=O)C1CSC(=O)C1)c1ccccc1 (centres undefined) | inconclusive: 16.4 µM [cytotoxic, single point] |  |
| CC(C)(CNC(=O)c1ccc(Cl)c(S(=O)(=O)N2CCc3ccccc3C2)c1)N1CCOCC1 | inconclusive: 1.84 µM [cytotoxic, full curve] |  |

Next part:

| Compound | Potency | activity change, negative = cytotoxicity |
| --- | --- | --- |
| CCCCCCn1cc(CN2CC(N(C)C)CS2(=O)=O)nn1 (centres undefined) | inactive |  |
| O=C(CCCn1c(SCc2cc(=O)n3cc(Cl)ccc3n2)nc2ccccc2c1=O)NCC1CCCO1 (centres undefined) | inconclusive: 20.6 µM [cytotoxic, single point] |  |
| CC(CCc1ccccc1)NC(=O)c1cccc([N+](=O)[O-])c1 (centres undefined) | inconclusive: 23.1 µM [cytotoxic, single point] |  |
| O=[N+]([O-])c1ccc(Cl)c(S(=O)(=O)Nc2cccc(-c3ccc(N4CCCC4)nn3)c2)c1 | inactive |  |
| COc1cc(C(=O)NNC(=O)c2cc(S(=O)(=O)N(C)C)ccc2N2CCCC2)cc(OC)c1OC | inconclusive: 29.1 µM [rising, single point] |  |
| CC(C(Sc1ccccc1N)c1ccccc1)[N+](=O)[O-] (centres undefined) | inactive |  |
| CCOC(=O)c1c(C)n(C)c2ccc(OCC(O)Cn3c(C)nc4ccccc43)cc12 (centres undefined) | active: 13 µM |  |
| CCCCNC(=O)C1CCC(CNS(=O)(=O)c2ccc(NC(C)=O)cc2)CC1 (centres undefined) | inconclusive: 23.1 µM [rising, single point] |  |
| COc1ccc(CCNC(=O)c2cc3c(=O)n(C)c4ccccc4c3n2C)cc1OC | inconclusive: 9.2 µM [cytotoxic, partial curve, poor fit] |  |
| COc1ccc(/C(N)=N/OC(=O)c2c(-c3ccccc3Cl)noc2C)cc1OC | inconclusive: 25.9 µM [cytotoxic, single point] |  |
| O=C(NNC(=O)c1csc(-c2cnccc2C(F)(F)F)n1)c1ccc(C(F)(F)F)cc1 | inconclusive: 25.9 µM [cytotoxic, single point] |  |
| Cc1cc(C)c(NC(=O)CSc2nnc(CNC(=O)c3ccccc3F)o2)c(C)c1 | inconclusive: 23.1 µM [rising, single point] |  |
| COc1cc(/C=C(\C#N)C(=O)Nc2cccc(C(=O)O)c2)ccc1OCc1ccc(F)cc1 | inactive |  |
| CN1C2C=C(N(CCc3ccccc3)C(=O)c3ccc(Cl)cc3)CC1CC2 (centres undefined) | inconclusive: 23.1 µM [cytotoxic, single point] |  |
| Cc1nc(-c2ccc(S(=O)(=O)NCc3ccc(N(C)C)cc3)cc2)co1 | inconclusive: 0.0164 µM [cytotoxic, full curve] |  |
| CC(=O)c1cccc(NC(=O)N2CCCC2C(=O)NCc2ccc3c(c2)OCO3)c1 (centres undefined) | inactive |  |
| O=C(NC1CCCC1)C(c1ccc(F)cc1)N(C(=O)c1csnn1)c1ccccc1 (centres undefined) | inconclusive: 20.6 µM [cytotoxic, single point] |  |
| CC1(C)NC(=O)N(CCCCOc2ccc3ccccc3c2Cl)C1=O | active: 20.6 µM |  |
| CC(=O)Nc1ccc(S(=O)(=O)N2CCN(CC(O)COc3ccc4ccccc4c3)CC2)cc1 (centres undefined) | inconclusive: 18.4 µM [cytotoxic, single point] |  |
| CCOc1nc2ccccc2nc1NS(=O)(=O)c1ccc(Cl)cc1 | inactive |  |
| CC(C)NC(=S)NC(=O)c1ccc(-c2ccccc2)cc1 | inconclusive: 32.6 µM [cytotoxic, single point] |  |
| Cc1cc(C)c(C)c(C(=O)CSc2nnc(-c3ccc4[nH]c(C)c(C)c4c3)o2)c1C | inconclusive: 18.4 µM [cytotoxic, partial curve] |  |
| COc1ccc(C2CC(=O)Oc3c(C(CCN4CCCC(C)C4)c4ccc(N(C)C)cc4)c(OC)cc(OC)c32)cc1 (centres undefined) | inconclusive: 29.1 µM [rising, single point] |  |
